Data reported in PubChem BioAssay AID463181 (University of Pittsburgh Molecular Library Screening Center, 2010).
The list shows a part of the results. The main result of the screen is listed elsewhere. These columns were measured beside it and carry no call.

test: L929 protection from caspase-blocker death, IC50 – L929 cells, duplicate IC50, dose response (AID 463181); settings: L929 zVAD necroptosis rescue, ATP luminescence, 24 h; inhibition of cell death; at 50 µM; stronger effect = higher value

Row | Compound | inhibition
1 | Cc1ccc(C(=O)Nc2cccc(C(F)(F)F)c2)cc1Nc1ncnc2nc[nH]c12 | 27.4%
2 | CCCN1C(=O)/C(=C/c2ccc3c(c2)OCO3)NC1=S | 37.4%
3 | O=C(Nc1nccs1)c1ccc(S(=O)(=O)N2CCCCC2)cc1 | 31.6%
4 | Cc1ccc2c(c1)N(C(=O)NC1CCCCC1)C(C)(C)CC2C (stereo not given) | 32.8%
5 | COc1ccc(N=Cc2c(O)[nH]c3ccccc23)cc1 | 52.9%
6 | COc1cc(/C=N/Nc2ccc(C(F)(F)F)cn2)cc(OC)c1O | 44.2%
7 | Oc1ccc(-c2csc(Nc3ncccn3)n2)cc1 | 45.7%
8 | O=c1[nH]c2ccccc2nc1/C=C/c1ccc(O)cc1 | 40.5%
9 | CCN1CCN(Cc2ccc(NC(=O)c3cc(NC(=O)c4ccno4)cc(OC)c3)cc2C(F)(F)F)CC1 | 53.7%
10 | CCn1c(SCc2ccc(C(=O)Nc3nccs3)cc2)nnc1-c1ccc(N)cc1 | 45.9%
11 | COc1cc(/C=N/Nc2nc3ccccc3s2)ccc1O | 49.3%
12 | O=C(Nc1ccc(F)cc1)Nc1ccc(N2CCCC2)c(S(=O)(=O)Nc2ccccc2Cl)c1 | 31.9%
13 | CCCN1C(=O)/C(=C/c2ccc(C)s2)NC1=S | 40.4%
14 | O=C(CSc1nnnn1-c1ccc(O)cc1)Nc1ccc(N2CCOCC2)c(Cl)c1 | 40%
15 | CN(c1ccc(C(=O)Nc2nccs2)cc1)S(=O)(=O)c1ccccc1 | 41.7%

Compounds 4 to 5 from above:
Row | Compound | inhibition
4 | Cc1ccc2c(c1)N(C(=O)NC1CCCCC1)C(C)(C)CC2C (stereo not given) | 32.8%
5 | COc1ccc(N=Cc2c(O)[nH]c3ccccc23)cc1 | 52.9%
